# Reference: the supplement of paper PMC8728848
# Some of the results follow.
# Tests used:
# Assay in all cases: glycan array binding signal (z-score within array); higher = stronger binding
# Details in all cases: glycan notation: IUPAC condensed, linker removed
# [1] = biological target: Neu5Ac(a2-6)GlcNAc(b1-4)GlcNAc
# Outline: (§1)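 The binding signal is a Z-score computed within each array. Data were drawn from 3228 arrays in the Consortium for Functional Glycomics database, restricted to those with a known protein sequence. Scores were averaged over arrays of the same protein sequence at different concentrations or buffers, and over linkers, and negative values can be taken as non-binding.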
# [2] = biological target: Neu5Ac(a2-6)GlcNAc(b1-4)GlcNAc(b1-4)GlcNAc
# Outline: as §1
# [3] = biological target: Neu5Ac(a2-8)Neu5Ac
# Outline: as §1
# [4] = biological target: Neu5Ac(a2-8)Neu5Ac(a2-3)Gal(b1-3)GalNAc(b1-4)[Neu5Ac(a2-3)]Gal(b1-4)Glc
# Outline: as §1
# [5] = biological target: Neu5Ac(a2-8)Neu5Ac(a2-3)Gal(b1-3)GalNAc(b1-4)[Neu5Ac(a2-8)Neu5Ac(a2-3)]Gal(b1-4)Glc
# Outline: as §1
# [6] = biological target: Neu5Ac(a2-8)Neu5Ac(a2-3)Gal(b1-4)Glc
# Outline: as §1
# [7] = biological target: Neu5Ac(a2-8)Neu5Ac(a2-3)Gal(b1-4)GlcNAc
# Outline: as §1
# [8] = biological target: Neu5Ac(a2-8)Neu5Ac(a2-3)[Gal(b1-3)GalNAc(b1-4)]Gal(b1-4)Glc
# Outline: as §1
# [9] = biological target: Neu5Ac(a2-8)Neu5Ac(a2-3)[GalNAc(b1-4)]Gal(b1-4)Glc
# Outline: as §1
# [10] = biological target: Neu5Ac(a2-8)Neu5Ac(a2-8)Neu5Ac
# Outline: as §1
# [11] = biological target: Neu5Ac(a2-8)Neu5Ac(a2-8)Neu5Ac(a2-3)Gal(b1-4)Glc
# Outline: as §1
# [12] = biological target: Neu5Ac(a2-8)Neu5Ac(a2-8)Neu5Ac(a2-3)[Gal(b1-3)GalNAc(b1-4)]Gal(b1-4)Glc
# Outline: as §1
# [13] = biological target: Neu5Ac(a2-8)Neu5Ac(a2-8)Neu5Ac(a2-3)[GalNAc(b1-4)]Gal(b1-4)Glc
# Outline: as §1
# [14] = biological target: Neu5Ac(a2-8)Neu5Ac(a2-8)Neu5Ac(a2-8)Neu5Ac(a2-3)[GalNAc(b1-4)]Gal(b1-4)Glc
# Outline: as §1
# [15] = biological target: Neu5Ac(a2-8)Neu5Gc(a2-3)Gal(b1-4)GlcNAc
# Outline: as §1
# [16] = biological target: Neu5Ac(b2-6)Gal(b1-4)GlcNAc
# Outline: as §1
# [17] = biological target: Neu5Ac(b2-6)GalNAc
# Outline: as §1
# [18] = biological target: Neu5Ac9Ac(a2-3)Gal(b1-3)GlcNAc
# Outline: as §1
# [19] = biological target: Neu5Ac9Ac(a2-3)Gal(b1-4)GlcNAc
# Outline: as §1
# [20] = biological target: Neu5Ac9Ac(a2-6)Gal(b1-4)GlcNAc
# Outline: as §1
# [21] = biological target: Neu5Gc(a2-3)Gal(b1-3)GlcNAc
# Outline: as §1
# [22] = biological target: Neu5Gc(a2-3)Gal(b1-3)[Fuc(a1-4)]GlcNAc
# Outline: as §1
# [23] = biological target: Neu5Gc(a2-3)Gal(b1-4)Glc
# Outline: as §1
# [24] = biological target: Neu5Gc(a2-3)Gal(b1-4)GlcNAc
# Outline: as §1
# [25] = biological target: Neu5Gc(a2-3)Gal(b1-4)GlcNAc(b1-3)Gal(b1-4)GlcNAc(b1-2)Man(a1-3)[Neu5Gc(a2-3)Gal(b1-4)GlcNAc(b1-3)Gal(b1-4)GlcNAc(b1-2)Man(a1-6)]Man(b1-4)GlcNAc(b1-4)GlcNAc
# Outline: as §1
# [26] = biological target: Neu5Gc(a2-3)Gal(b1-4)[Fuc(a1-3)]GlcNAc
# Outline: as §1
# [27] = biological target: Neu5Gc(a2-6)Gal(b1-4)GlcNAc
# Outline: as §1
# [28] = biological target: Neu5Gc(a2-6)GalNAc
# Outline: as §1
# [29] = biological target: Neu5Gc(a2-8)Neu5Ac(a2-3)Gal(b1-4)GlcNAc
# Outline: as §1
# [30] = biological target: Neu5Gc(a2-8)Neu5Gc(a2-3)Gal(b1-4)GlcNAc
# Outline: as §1
# [31] = biological target: Neu5Gc(a2-8)Neu5Gc(a2-3)Gal(b1-4)GlcNAc(b1-3)Gal(b1-4)GlcNAc
# Outline: as §1
# [32] = biological target: Neu5Gc(a2-8)Neu5Gc(a2-6)Gal(b1-4)GlcNAc
# Outline: as §1
# [33] = biological target: Neu5Gc(b2-6)Gal(b1-4)GlcNAc
# Outline: as §1
binder,measurement,setting,value
"Erv41-EDTA (Saccharomyces cerevisiae), Q04651 (protein) MKFLVNVALVFMVVYISYIYAAAPEHHHHHHDYDIPTTENLYFQGAMGYIDQQYVVDSQVRDTVQINMDIYVNTKCDWLQINVRDQTMDRKLVLEELQLEEMPFFIPYDTKVNDINEIITPELDEILGEAIPAEFREKLDTRSFFDESDPNKAHLPEFNGCHVFGSIPVNRVSGELQITAKSLGYVASRKAPLEELKFNHVINEFSFGDFYPYIDNPLDNTAQFNQDEPLTTYVYYTSVVPTLFKKLGAEVDTNQYSVNDYRYLYKDVAAKGDKMPGIFFKYNFEPLSIVVSDVRL",glycan array binding signal (z-score),[1],0.004
same,glycan array binding signal (z-score),[2],-1.06
same,glycan array binding signal (z-score),[3],0.31
same,glycan array binding signal (z-score),[4],-0.348
same,glycan array binding signal (z-score),[5],0.515
same,glycan array binding signal (z-score),[6],-0.577
same,glycan array binding signal (z-score),[7],-1.13
same,glycan array binding signal (z-score),[8],1.35
same,glycan array binding signal (z-score),[9],0.339
same,glycan array binding signal (z-score),[10],0.616
same,glycan array binding signal (z-score),[11],1.23
same,glycan array binding signal (z-score),[12],0.774
same,glycan array binding signal (z-score),[13],0.261
same,glycan array binding signal (z-score),[14],-0.264
same,glycan array binding signal (z-score),[15],-0.56
same,glycan array binding signal (z-score),[16],-1.02
same,glycan array binding signal (z-score),[17],0.566
same,glycan array binding signal (z-score),[18],-0.13
same,glycan array binding signal (z-score),[19],-0.38
same,glycan array binding signal (z-score),[20],-0.218
same,glycan array binding signal (z-score),[21],0.539
same,glycan array binding signal (z-score),[22],-0.383
same,glycan array binding signal (z-score),[23],-0.149
same,glycan array binding signal (z-score),[24],-0.702
same,glycan array binding signal (z-score),[25],0.937
same,glycan array binding signal (z-score),[26],0.51
same,glycan array binding signal (z-score),[27],-0.134
same,glycan array binding signal (z-score),[28],-0.257
same,glycan array binding signal (z-score),[29],-0.152
same,glycan array binding signal (z-score),[30],0.393
same,glycan array binding signal (z-score),[31],-1.33
same,glycan array binding signal (z-score),[32],1.14
same,glycan array binding signal (z-score),[33],0.424

# Laid out differently: entries from further up
binder	measurement	setting	value
Erv41-EDTA (Saccharomyces cerevisiae), Q04651 (protein) MKFLVNVALVFMVVYISYIYAAAPEHHHHHHDYDIPTTENLYFQGAMGYIDQQYVVDSQVRDTVQINMDIYVNTKCDWLQINVRDQTMDRKLVLEELQLEEMPFFIPYDTKVNDINEIITPELDEILGEAIPAEFREKLDTRSFFDESDPNKAHLPEFNGCHVFGSIPVNRVSGELQITAKSLGYVASRKAPLEELKFNHVINEFSFGDFYPYIDNPLDNTAQFNQDEPLTTYVYYTSVVPTLFKKLGAEVDTNQYSVNDYRYLYKDVAAKGDKMPGIFFKYNFEPLSIVVSDVRL	glycan array binding signal (z-score)	[15]	-0.56
same	glycan array binding signal (z-score)	[16]	-1.02
